Test results from the supplement of paper PMC10689618.
Where a name gives a salt, the structure may show the parent alone. Some of the results follow. Repeats are few or missing, and single values can be far off.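 Labelled rat cortical synaptosomes were engulfed by primary human fetal astrocytes. Engulfment equaled a red/green ratio, corrected for calcein live-cell signal and normalized to the plate median. Compounds were toxic when calcein dropped over 30%, and reduced phagocytosis when below 70% of the median above 5 µM.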

Tests used:
Settings in all cases: 24 h
Human fetal astrocytes [1] = test: loss of total cells relative to no-compound high-control median (toxicity); higher = more toxic (fewer cells)
Human fetal astrocytes [2] = test: as above; remark: listed apart in the source
Human fetal astrocytes [3] = test: synaptosome phagocytosis (pHrodo/calcein intensity ratio) relative to plate median of data wells; higher = more phagocytosis
Human fetal astrocytes [4] = test: as above; remark: listed apart in the source

Row | Structure (SMILES) | loss of total cells (Human fetal astrocytes [1]; 1.39 µM) [%] | loss of total cells (Human fetal astrocytes [1]; 2.78 µM) [%] | loss of total cells (Human fetal astrocytes [1]; 5.56 µM) [%] | loss of total cells (Human fetal astrocytes [1]; 11.11 µM) [%] | loss of total cells (Human fetal astrocytes [1]; 22.22 µM) [%] | loss of total cells (Human fetal astrocytes [2]; 1.39 µM) [%] | loss of total cells (Human fetal astrocytes [2]; 2.78 µM) [%] | loss of total cells (Human fetal astrocytes [2]; 5.56 µM) [%] | loss of total cells (Human fetal astrocytes [2]; 11.11 µM) [%] | loss of total cells (Human fetal astrocytes [2]; 22.22 µM) [%] | synaptosome phagocytosis (Human fetal astrocytes [3]; 1.39 µM) [%] | synaptosome phagocytosis (Human fetal astrocytes [3]; 2.78 µM) [%] | synaptosome phagocytosis (Human fetal astrocytes [3]; 5.56 µM) [%] | synaptosome phagocytosis (Human fetal astrocytes [3]; 11.11 µM) [%] | synaptosome phagocytosis (Human fetal astrocytes [3]; 22.22 µM) [%] | synaptosome phagocytosis (Human fetal astrocytes [4]; 1.39 µM) [%] | synaptosome phagocytosis (Human fetal astrocytes [4]; 2.78 µM) [%] | synaptosome phagocytosis (Human fetal astrocytes [4]; 5.56 µM) [%] | synaptosome phagocytosis (Human fetal astrocytes [4]; 11.11 µM) [%] | synaptosome phagocytosis (Human fetal astrocytes [4]; 22.22 µM) [%]
1 | CCCCNc1ccc(C(=O)OCCN(C)C)cc1 [Tetracaine hydrochloride] | 0.3 | -21.9 | 1.1 | 9.6 | -0.8 | -9.2 | -24.7 | 11.1 | 2.6 | 7.6 | 75.6 | 87.4 | 67.3 | 91.3 | 82.4 | 110 | 89.6 | 94.9 | 88.7 | 76.5
2 | Cc1ccc(N(CC2=NCCN2)c2cccc(O)c2)cc1 [Phentolamine mesylate] | -9 | -30.8 | -9.6 | 6.5 | -0.8 | -12.8 | -9.2 | -4.2 | -7.8 | -32.5 | 90.8 | 99.5 | 59 | 67.9 | 53.9 | 113 | 93.3 | 124 | 81.8 | 86.5
3 | O=C(O)c1cc(=O)c(O)c2c(O)c(O)c(O)cc2c1 |  |  |  |  |  | 17 | 22.7 | 31.9 | 10.5 | 40.9 | 110 | 135 | 97.4 | 111 | 77.2 |  |  |  |  | 
4 | CCCCCCCCCCCCCCCC(=O)OCC(O)CO (stereo not given) |  |  |  |  |  | 1.1 | 13.3 | -1.5 | 51 | 8.5 | 93.4 | 93.3 | 86.1 | 109 | 97.3 |  |  |  |  | 
5 | COc1cc(-c2coc3cc(OC)c(OC)c(OC)c3c2=O)cc(OC)c1OC |  |  |  |  |  | 29.3 | 10.6 | -19.1 | 44.5 | 6.3 | 136 | 120 | 101 | 161 | 112 |  |  |  |  | 
6 | COc1ccc(-c2cc(=O)c3c(O)c(OC)c(OC)c(OC)c3o2)cc1OC |  |  |  |  |  | -18 | -1.1 | 0 | 6.8 | 4.4 | 94 | 96.4 | 64 | 87.3 | 69.4 |  |  |  |  | 
7 | COc1cc(O)cc(O)c1C(C)=O |  |  |  |  |  | 19.1 | 6.1 | 21.7 | 2.9 | 18.2 | 154 | 117 | 125 | 129 | 136 |  |  |  |  | 
8 | COc1cc(/C=C/C(=O)CC(=O)/C=C/c2ccc(O)c(OC)c2)ccc1O |  |  |  |  |  | -27 | -10.5 | -5.1 | 7.4 | -5.2 | 101 | 102 | 109 | 54 | 28.8 |  |  |  |  | 
9 | C[C@H]1C(=O)CC[C@@H]2[C@]1(C)CC[C@H]1[C@@]2(C)CC[C@@]2(C)[C@@H]3CC(C)(C)CC[C@]3(C)CC[C@]12C |  |  |  |  |  | -6.9 | 8 | -11.5 | 20.6 | 8.5 | 138 | 117 | 114 | 111 | 102 |  |  |  |  | 
10 | CC(N)C(=O)OC(C)(C)Cc1ccc(Cl)cc1 (stereo not given) [Alaproclate hydrochloride] | -24.2 | -13.8 | -5.1 | 2.2 | 13.2 | -46 | 21.4 | 13.7 | 39.7 | 9.7 | 81.5 | 122 | 79.1 | 104 | 101 | 122 | 92.1 | 103 | 102 | 97.2
11 | CCC[C@H](N[C@@H](C)C(=O)N1[C@H](C(=O)O)C[C@@H]2CCCC[C@@H]21)C(=O)OCC |  |  |  |  |  | -12.9 | -13.5 | 13 | 18.7 | 7.8 | 111 | 108 | 124 | 101 | 95.7 |  |  |  |  | 
12 | O=C1c2cccc(O)c2C(=O)c2c(O)cccc21 |  |  |  |  |  | -37.3 | -4.6 | -8.7 | -10.9 | 9.1 | 94.2 | 97.9 | 109 | 108 | 106 |  |  |  |  | 
13 | CC(=O)OCC(=O)[C@@]1(O)CC[C@H]2[C@@H]3CCC4=CC(=O)CC[C@]4(C)[C@H]3C(=O)C[C@@]21C |  |  |  |  |  | -5.6 | -26.8 | -24.4 | -8.4 | -8.2 | 125 | 119 | 149 | 90.7 | 100 |  |  |  |  | 
14 | COC(=O)Nc1nc2cc(C(=O)c3ccccc3)ccc2[nH]1 |  |  |  |  |  | -28.2 | 0.9 | 4.5 | 7.8 | 9.6 | 93 | 118 | 139 | 97.9 | 121 |  |  |  |  | 
15 | O=P(O)(O)C(O)(Cc1cccnc1)P(=O)(O)O |  |  |  |  |  | -6.2 | -13.3 | 32.8 | -4.5 | 2.6 | 139 | 91.5 | 159 | 122 | 98.2 |  |  |  |  | 
